The other results are listed elsewhere or left out.

Chains of the proteins cited; added tags and fusions are not shown. Lines headed by an entry give the natural chain unless they say otherwise; changes in a name come on top.
UniProt P21964: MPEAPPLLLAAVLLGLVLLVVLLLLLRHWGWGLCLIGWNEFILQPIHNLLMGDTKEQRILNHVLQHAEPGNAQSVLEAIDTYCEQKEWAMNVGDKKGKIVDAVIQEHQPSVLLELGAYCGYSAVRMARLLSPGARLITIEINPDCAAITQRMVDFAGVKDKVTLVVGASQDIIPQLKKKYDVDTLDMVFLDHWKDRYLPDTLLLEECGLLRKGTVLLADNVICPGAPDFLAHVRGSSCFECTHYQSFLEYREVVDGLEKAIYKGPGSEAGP
UniProt Q7Z7A1: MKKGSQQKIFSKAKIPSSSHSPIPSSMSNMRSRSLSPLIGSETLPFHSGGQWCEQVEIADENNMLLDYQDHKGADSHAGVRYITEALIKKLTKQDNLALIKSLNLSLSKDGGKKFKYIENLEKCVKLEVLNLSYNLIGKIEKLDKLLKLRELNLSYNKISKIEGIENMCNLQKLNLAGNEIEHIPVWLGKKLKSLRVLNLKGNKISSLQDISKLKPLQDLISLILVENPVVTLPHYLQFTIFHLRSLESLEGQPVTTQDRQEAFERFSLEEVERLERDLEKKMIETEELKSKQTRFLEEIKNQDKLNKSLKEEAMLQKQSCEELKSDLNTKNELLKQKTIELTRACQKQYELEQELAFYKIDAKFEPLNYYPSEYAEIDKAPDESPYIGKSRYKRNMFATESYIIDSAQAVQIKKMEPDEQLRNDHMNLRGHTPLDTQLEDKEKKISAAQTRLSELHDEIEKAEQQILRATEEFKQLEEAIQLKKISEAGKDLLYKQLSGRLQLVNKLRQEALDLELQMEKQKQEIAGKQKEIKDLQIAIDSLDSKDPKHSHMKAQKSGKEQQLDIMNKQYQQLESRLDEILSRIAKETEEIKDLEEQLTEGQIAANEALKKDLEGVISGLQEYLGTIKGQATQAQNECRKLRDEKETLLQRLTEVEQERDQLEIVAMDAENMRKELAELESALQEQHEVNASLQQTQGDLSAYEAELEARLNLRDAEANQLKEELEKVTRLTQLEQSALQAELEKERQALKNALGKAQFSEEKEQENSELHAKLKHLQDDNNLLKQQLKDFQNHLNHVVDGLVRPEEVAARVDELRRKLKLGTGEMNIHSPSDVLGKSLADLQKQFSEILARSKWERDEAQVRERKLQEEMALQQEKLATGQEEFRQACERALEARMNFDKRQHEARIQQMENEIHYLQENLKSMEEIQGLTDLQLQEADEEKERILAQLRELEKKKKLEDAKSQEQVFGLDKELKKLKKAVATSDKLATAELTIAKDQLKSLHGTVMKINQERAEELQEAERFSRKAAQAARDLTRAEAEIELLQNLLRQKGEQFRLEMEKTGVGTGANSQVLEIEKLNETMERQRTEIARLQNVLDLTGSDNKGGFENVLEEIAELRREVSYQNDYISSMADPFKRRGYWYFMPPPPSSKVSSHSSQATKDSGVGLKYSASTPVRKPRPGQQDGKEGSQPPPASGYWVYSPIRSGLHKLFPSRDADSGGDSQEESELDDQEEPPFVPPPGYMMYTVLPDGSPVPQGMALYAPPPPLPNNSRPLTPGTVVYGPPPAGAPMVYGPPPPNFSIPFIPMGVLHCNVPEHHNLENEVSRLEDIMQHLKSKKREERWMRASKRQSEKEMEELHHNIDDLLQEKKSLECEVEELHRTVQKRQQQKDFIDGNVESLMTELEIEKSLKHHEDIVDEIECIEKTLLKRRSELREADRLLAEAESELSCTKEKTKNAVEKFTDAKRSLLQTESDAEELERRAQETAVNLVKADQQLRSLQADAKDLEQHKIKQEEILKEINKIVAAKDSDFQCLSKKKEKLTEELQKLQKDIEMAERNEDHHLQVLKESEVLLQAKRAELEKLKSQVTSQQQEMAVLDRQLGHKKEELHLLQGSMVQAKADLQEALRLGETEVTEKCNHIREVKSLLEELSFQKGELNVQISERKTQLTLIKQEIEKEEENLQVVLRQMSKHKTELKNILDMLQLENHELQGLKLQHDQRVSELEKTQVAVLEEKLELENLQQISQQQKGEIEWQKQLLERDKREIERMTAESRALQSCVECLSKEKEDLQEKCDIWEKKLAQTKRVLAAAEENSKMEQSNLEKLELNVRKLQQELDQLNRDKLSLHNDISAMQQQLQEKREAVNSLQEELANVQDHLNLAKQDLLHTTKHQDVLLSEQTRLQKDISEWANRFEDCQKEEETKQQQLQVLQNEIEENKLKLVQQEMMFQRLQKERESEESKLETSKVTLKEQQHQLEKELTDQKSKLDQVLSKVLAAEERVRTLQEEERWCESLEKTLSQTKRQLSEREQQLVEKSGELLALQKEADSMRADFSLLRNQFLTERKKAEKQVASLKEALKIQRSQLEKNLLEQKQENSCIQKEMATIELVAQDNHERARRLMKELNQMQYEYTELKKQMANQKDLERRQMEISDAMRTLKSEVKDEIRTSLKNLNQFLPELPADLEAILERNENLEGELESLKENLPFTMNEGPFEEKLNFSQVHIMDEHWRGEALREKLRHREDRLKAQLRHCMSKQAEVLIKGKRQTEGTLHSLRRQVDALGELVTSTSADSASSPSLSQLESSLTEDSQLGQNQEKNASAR
UniProt Q9NZN8, whole entry, looked up: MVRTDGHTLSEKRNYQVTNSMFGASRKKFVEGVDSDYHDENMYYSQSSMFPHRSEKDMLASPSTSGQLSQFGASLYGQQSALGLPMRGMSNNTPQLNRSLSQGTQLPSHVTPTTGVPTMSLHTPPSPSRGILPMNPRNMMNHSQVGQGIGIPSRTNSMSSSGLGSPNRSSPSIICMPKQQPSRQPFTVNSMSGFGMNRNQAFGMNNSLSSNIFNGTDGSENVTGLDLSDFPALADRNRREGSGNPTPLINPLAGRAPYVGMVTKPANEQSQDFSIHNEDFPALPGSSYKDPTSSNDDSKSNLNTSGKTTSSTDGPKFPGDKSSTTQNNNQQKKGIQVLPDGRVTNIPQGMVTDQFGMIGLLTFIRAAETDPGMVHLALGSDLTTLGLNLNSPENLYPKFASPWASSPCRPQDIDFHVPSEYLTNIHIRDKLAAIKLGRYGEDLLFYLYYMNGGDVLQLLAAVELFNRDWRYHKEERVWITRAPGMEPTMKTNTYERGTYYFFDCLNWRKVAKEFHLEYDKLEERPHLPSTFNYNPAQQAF
UniProt Q9H9E3: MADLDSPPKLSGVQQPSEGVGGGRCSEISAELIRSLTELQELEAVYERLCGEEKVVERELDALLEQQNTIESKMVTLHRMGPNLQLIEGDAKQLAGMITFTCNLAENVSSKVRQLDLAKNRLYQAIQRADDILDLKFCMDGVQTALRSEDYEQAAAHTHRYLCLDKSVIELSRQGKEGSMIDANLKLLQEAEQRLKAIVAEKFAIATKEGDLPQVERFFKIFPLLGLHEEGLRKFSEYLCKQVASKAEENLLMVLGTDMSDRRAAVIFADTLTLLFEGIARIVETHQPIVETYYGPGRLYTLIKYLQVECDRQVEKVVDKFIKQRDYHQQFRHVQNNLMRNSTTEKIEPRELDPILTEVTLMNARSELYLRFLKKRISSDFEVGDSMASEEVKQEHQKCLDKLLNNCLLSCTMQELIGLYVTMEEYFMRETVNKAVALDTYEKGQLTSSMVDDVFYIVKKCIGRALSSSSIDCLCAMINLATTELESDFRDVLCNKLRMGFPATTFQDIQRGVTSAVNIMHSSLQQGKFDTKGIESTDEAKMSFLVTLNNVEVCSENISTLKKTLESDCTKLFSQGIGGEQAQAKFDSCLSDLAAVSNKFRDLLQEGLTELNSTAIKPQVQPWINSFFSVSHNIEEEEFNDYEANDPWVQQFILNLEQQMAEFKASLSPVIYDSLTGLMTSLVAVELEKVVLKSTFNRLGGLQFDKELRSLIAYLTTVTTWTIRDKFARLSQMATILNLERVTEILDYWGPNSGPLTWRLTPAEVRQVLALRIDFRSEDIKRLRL
UniProt Q9Y678: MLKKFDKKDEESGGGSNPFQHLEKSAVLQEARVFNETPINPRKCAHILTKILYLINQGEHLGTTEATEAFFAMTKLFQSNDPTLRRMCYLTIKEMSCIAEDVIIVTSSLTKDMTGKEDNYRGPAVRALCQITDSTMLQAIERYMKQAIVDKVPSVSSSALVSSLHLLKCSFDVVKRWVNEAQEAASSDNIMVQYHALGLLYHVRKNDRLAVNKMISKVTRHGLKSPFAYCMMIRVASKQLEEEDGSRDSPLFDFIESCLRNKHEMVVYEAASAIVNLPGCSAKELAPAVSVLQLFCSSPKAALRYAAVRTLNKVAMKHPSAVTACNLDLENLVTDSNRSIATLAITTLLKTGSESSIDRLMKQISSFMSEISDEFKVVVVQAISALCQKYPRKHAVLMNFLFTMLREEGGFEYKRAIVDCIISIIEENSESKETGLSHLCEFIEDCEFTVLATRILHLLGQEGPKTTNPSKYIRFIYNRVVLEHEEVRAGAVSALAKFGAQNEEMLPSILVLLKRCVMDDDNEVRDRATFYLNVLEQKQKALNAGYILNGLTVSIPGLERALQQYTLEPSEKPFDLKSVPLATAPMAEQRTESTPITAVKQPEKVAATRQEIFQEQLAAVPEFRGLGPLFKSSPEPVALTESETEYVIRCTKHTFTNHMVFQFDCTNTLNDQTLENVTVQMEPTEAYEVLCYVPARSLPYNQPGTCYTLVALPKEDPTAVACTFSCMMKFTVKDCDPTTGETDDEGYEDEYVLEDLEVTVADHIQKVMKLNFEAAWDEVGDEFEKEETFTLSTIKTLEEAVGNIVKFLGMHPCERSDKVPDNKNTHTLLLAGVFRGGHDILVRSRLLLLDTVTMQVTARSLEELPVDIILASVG
UniProt Q9BT09: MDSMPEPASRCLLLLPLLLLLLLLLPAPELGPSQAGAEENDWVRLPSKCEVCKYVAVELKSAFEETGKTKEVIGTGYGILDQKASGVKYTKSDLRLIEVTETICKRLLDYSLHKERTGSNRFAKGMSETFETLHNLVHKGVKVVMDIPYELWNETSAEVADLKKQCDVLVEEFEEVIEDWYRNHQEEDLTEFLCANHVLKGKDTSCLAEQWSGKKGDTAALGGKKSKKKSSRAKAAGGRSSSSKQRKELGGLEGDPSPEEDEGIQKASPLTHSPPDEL
UniProt Q99439: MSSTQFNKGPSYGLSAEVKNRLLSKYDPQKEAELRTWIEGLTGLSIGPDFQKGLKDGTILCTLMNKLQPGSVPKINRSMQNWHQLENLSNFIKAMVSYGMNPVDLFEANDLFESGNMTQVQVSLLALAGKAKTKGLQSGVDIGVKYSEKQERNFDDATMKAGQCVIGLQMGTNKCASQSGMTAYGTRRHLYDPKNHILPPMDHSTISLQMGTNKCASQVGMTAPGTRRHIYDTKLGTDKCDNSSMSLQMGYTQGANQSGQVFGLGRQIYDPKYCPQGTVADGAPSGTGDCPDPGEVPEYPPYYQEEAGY

These results are taken from the supplement of paper PMC12067093, “Discovery and optimisation of a covalent ligand for TRIM25 and its application to targeted protein ubiquitination” (Chemical Science, 2025).
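Note: competitive chemoproteomic profiling in live THP-1 cells with an iodoacetamide desthiobiotin (IA-DTB) probe, comparing probe-labelled peptide intensities in compound-treated cells against DMSO-treated controls.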

Compound in the assay: CC1Cc2ccccc2N1C(=O)C1CCCN(C1)C(=O)CCl (mixture of isomers) [TRIM25 ligand 11 (diastereomer mixture)]
Briefly: probe-labelled cysteine peptide fold change vs DMSO (competition) (log2 fold change); higher = less target engagement (more negative = stronger competition). Conditions: 50 µM; THP-1; incubation time: 4 h.
“COMT_P21964_119_IVDAVIQEHQPSVLLELGAYCGYSAVR (UniProt P21964)”: the “probe-labelled cysteine peptide fold change” value worked out at 0.0342.

“CNTRL_Q7Z7A1_1375_SLECEVEELHR (UniProt Q7Z7A1)”: the “probe-labelled cysteine peptide fold change” value was -0.146.

Regarding “CNOT1_A5YKK6_2359_LFQSVAQCCMGQK (UniProt A5YKK6)”, the “probe-labelled cysteine peptide fold change” value amounted to 0.285.

As to “CNOT2_Q9NZN8_175_SSPSIICMPK (UniProt Q9NZN8)”, the “probe-labelled cysteine peptide fold change” value is -0.231.

With “COG4_Q9H9E3_310_YLQVECDR (UniProt Q9H9E3)”, the “probe-labelled cysteine peptide fold change” value was found to be 0.164.

For the target “COPA_P53621_380_SGSKFPVFNMSYNPAENAVLLCTR (UniProt P53621)”, the “probe-labelled cysteine peptide fold change” value is -0.219.

For “COMT_P21964_241_GSSCFECTHYQSFLEYR (UniProt P21964)”, the “probe-labelled cysteine peptide fold change” value was -0.107.

On to “COLGALT1_Q8NBJ5_203_AAYSNFWCGMTSQGYYK (UniProt Q8NBJ5)”, for which the “probe-labelled cysteine peptide fold change” value is -0.107.

“COMT_P21964_238_GSSCFECTHYQSFLEYR (UniProt P21964)”: the “probe-labelled cysteine peptide fold change” value worked out at 0.014.

Turning to “COPG1_Q9Y678_44_CAHILTK (UniProt Q9Y678)”, the “probe-labelled cysteine peptide fold change” value was 0.0117.

Consider “COPG1_Q9Y678_258_DSPLFDFIESCLR (UniProt Q9Y678)”, for which the “probe-labelled cysteine peptide fold change” value was determined as 0.121.

On to “COLGALT1_Q8NBJ5_203_AAYSNFWCGMTSQGYYKR (UniProt Q8NBJ5)”, for which the “probe-labelled cysteine peptide fold change” value is -0.341.

For “COLGALT1_Q8NBJ5_228_GCFAVPMVHSTFLIDLR (UniProt Q8NBJ5)”, the “probe-labelled cysteine peptide fold change” value is -0.244.

As to “CNPY3_Q9BT09_206_DTSCLAEQWSGK (UniProt Q9BT09)”, the “probe-labelled cysteine peptide fold change” value is 0.0385.

With “CNN2_Q99439_215_CASQVGMTAPGTR (UniProt Q99439)”, the “probe-labelled cysteine peptide fold change” value is -0.255.
